Measurements as given in article PMC5312288.

Sequences of proteins named here, by UniProt entry; tags and fusion partners are left off. Residues count along the entry.
UniProt P14625, residues 22-803: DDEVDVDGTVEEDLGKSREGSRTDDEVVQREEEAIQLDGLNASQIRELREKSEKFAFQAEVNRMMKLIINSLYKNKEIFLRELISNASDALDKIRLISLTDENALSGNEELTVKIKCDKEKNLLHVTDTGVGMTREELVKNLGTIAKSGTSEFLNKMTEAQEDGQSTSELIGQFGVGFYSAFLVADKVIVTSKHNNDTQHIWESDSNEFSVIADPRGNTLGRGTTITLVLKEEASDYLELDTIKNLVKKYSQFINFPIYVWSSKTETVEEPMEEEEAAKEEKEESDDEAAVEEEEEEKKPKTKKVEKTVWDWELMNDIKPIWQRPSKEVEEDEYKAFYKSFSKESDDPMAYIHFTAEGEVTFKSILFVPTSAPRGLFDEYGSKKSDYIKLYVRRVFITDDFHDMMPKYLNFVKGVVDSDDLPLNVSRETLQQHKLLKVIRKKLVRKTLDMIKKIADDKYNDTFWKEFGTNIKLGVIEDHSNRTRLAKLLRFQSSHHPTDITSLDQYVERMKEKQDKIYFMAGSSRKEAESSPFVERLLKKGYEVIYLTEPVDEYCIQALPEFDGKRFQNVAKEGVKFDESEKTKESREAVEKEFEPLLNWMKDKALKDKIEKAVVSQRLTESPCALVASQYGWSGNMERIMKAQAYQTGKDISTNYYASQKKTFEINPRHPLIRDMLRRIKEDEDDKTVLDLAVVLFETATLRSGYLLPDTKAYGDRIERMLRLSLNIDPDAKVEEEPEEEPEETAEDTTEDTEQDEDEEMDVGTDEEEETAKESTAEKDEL
UniProt P07355: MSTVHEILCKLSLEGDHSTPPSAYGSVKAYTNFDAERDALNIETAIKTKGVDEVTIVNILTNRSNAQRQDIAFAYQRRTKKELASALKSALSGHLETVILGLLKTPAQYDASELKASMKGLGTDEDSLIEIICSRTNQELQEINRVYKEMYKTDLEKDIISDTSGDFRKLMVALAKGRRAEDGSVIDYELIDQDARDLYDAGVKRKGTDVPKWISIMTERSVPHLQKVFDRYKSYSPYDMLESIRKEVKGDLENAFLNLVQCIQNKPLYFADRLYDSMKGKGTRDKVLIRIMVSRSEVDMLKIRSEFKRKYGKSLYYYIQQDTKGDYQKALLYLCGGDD
UniProt P10809, residues 27-573: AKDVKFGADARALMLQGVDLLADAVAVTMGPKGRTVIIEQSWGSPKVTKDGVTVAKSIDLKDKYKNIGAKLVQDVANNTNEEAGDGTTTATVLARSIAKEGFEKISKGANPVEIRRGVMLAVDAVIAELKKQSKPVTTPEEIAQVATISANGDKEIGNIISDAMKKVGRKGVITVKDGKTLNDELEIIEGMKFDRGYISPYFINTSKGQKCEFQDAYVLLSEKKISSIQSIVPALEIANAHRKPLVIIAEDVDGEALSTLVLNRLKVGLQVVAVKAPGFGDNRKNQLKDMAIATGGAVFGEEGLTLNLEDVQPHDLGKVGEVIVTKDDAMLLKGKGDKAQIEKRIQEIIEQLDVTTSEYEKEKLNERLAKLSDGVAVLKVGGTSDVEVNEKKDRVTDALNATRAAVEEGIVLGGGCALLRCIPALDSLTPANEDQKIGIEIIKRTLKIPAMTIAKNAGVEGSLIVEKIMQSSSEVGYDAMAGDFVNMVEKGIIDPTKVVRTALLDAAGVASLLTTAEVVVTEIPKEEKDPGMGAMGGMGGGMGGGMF
UniProt P02675, residues 31-491: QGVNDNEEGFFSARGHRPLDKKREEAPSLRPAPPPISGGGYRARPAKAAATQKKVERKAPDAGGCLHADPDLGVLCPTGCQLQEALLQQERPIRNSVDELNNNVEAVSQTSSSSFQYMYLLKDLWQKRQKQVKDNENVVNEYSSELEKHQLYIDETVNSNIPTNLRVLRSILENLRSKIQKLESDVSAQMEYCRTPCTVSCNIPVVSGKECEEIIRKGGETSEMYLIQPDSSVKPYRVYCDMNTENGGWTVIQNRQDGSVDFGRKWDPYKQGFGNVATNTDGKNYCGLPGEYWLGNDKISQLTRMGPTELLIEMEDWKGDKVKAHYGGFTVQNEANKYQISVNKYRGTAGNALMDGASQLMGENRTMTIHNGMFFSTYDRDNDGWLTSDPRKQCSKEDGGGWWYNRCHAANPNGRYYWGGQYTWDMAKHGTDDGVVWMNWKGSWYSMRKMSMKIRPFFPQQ
UniProt P08238: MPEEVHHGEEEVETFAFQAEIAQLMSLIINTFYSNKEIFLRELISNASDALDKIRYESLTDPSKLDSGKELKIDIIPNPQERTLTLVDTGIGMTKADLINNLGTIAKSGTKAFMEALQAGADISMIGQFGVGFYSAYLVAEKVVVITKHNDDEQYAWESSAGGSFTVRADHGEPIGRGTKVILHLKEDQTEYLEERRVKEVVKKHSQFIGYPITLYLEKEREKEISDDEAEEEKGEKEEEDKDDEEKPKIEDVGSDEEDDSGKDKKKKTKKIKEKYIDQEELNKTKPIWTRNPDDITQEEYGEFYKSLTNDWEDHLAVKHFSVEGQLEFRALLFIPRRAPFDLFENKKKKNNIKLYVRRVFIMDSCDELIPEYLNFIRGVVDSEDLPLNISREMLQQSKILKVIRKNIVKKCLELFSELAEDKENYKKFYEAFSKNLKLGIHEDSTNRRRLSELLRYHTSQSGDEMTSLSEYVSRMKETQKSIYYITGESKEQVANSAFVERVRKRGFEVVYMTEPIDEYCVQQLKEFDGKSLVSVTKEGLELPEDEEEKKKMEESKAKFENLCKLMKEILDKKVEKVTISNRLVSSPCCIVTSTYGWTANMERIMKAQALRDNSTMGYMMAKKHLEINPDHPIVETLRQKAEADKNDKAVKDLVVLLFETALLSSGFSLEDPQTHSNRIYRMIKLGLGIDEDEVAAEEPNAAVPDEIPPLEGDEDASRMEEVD
UniProt O43707: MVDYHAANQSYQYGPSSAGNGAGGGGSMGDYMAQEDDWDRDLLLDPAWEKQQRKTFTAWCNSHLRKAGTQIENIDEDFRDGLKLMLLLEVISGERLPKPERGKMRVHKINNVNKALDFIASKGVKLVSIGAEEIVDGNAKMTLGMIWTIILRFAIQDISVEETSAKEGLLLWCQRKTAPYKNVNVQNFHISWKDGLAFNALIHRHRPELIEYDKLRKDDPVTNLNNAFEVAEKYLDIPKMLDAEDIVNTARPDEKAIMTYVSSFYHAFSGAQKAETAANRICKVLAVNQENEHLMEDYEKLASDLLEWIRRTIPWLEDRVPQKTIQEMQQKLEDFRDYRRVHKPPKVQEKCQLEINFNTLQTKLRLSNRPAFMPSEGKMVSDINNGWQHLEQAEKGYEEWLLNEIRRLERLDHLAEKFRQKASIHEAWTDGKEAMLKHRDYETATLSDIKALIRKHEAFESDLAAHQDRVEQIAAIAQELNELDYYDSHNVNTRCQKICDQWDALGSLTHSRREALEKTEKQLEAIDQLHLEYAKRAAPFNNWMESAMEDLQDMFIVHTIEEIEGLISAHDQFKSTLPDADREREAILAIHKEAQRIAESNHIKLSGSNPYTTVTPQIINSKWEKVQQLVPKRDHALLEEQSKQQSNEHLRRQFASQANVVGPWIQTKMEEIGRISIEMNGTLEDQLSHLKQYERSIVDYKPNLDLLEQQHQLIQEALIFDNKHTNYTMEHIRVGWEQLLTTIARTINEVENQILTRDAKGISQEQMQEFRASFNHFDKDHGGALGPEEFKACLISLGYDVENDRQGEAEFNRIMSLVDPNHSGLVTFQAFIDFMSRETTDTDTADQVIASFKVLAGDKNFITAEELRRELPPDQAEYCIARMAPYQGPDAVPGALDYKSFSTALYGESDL
UniProt A5A3E0: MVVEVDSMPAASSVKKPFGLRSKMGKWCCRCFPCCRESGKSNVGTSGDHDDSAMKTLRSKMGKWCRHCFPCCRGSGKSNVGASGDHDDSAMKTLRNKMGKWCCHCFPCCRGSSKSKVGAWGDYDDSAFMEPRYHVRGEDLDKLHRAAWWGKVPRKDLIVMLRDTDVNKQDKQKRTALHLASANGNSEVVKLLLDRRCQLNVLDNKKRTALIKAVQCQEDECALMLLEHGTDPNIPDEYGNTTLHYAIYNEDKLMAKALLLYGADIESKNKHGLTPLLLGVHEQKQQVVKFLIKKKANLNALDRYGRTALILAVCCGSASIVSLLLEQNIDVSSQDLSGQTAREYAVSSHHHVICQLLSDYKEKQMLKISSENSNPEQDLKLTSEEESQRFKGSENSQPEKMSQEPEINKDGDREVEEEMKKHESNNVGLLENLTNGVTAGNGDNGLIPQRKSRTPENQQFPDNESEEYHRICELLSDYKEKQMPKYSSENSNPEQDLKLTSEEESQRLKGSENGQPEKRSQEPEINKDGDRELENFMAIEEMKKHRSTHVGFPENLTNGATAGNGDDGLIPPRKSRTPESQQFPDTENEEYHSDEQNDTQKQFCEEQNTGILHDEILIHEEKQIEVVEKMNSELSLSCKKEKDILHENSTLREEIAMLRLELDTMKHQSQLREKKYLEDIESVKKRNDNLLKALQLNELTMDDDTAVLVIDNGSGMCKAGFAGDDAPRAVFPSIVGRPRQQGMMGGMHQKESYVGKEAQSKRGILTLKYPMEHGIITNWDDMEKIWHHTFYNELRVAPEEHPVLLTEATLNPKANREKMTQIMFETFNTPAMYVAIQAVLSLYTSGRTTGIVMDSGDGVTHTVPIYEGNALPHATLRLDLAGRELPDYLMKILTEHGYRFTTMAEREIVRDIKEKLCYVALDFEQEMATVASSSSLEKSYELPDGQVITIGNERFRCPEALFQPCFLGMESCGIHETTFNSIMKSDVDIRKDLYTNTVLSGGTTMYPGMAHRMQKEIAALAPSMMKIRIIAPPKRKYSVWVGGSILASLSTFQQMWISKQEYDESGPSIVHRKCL
UniProt P38646, residues 47-679: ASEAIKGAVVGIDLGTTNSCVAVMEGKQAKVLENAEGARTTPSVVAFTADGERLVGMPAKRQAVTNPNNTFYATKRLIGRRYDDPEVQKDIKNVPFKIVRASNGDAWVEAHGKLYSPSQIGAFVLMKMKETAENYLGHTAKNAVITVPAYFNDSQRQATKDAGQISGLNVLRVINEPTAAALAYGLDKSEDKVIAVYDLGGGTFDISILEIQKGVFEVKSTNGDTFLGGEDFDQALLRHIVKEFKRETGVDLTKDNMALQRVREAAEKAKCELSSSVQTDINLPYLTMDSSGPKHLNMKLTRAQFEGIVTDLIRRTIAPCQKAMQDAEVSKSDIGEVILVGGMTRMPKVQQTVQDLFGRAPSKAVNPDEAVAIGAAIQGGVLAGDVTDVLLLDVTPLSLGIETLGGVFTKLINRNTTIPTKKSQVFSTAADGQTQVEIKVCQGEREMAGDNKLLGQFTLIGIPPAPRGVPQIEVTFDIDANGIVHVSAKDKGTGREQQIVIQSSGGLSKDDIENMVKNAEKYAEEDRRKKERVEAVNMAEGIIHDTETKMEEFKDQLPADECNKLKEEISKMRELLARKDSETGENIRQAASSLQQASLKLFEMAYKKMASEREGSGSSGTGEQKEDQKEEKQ
UniProt Q08043: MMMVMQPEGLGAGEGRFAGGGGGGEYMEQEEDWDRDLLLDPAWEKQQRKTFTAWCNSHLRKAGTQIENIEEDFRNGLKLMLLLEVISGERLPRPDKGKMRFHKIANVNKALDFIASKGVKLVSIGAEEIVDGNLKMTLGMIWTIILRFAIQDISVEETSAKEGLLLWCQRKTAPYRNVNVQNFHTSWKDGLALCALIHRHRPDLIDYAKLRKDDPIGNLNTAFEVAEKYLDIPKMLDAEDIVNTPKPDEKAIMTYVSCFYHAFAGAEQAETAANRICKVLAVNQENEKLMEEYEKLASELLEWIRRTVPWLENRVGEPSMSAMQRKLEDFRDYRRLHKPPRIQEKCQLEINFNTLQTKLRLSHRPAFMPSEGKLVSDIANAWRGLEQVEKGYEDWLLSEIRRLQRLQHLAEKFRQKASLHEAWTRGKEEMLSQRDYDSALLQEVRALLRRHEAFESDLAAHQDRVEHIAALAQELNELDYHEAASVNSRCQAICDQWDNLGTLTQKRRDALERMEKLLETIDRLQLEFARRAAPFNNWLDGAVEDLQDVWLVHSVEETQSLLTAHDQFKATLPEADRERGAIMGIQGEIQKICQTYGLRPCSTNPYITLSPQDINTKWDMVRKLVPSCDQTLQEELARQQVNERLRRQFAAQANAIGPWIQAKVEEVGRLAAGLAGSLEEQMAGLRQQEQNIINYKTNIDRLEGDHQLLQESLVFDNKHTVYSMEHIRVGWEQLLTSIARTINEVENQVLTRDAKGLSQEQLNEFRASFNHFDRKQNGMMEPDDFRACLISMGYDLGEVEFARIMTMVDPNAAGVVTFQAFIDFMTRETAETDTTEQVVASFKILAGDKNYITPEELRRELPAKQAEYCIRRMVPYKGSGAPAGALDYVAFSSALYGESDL

Target: T1, Osteoprotegerin (human (endogenous in HMEC, SUM149PT, SUM1315MO2)) (UniProt O00300)
T1 sequence: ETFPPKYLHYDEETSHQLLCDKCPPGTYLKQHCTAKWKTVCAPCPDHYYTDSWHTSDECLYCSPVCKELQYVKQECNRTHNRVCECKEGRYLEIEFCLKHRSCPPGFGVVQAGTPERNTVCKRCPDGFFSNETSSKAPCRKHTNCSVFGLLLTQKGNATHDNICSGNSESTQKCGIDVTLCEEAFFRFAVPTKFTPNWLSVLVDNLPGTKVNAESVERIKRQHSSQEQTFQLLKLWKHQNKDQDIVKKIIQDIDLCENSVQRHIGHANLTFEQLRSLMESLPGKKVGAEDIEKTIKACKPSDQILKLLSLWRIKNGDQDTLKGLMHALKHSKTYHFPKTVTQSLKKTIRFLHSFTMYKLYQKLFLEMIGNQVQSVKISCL
Assay: affinity purification with mass spectrometry; lysates of HMEC, SUM149PT and SUM1315MO2 cells immunoprecipitated with anti-OPG antibody; SDS-PAGE; 17 gel bands analysed by LC-ESI-MS

## Filamin A (from UniProt P21333 1-2647)
  binding: binds

## Heat shock protein gp96 precursor (from UniProt P14625 22-803)
  binding: binds

## Annexin A2 (from UniProt P07355 1-339)
  binding: binds

## Heat shock 60kDa protein 1 (chaperonin) (from UniProt P10809 27-573)
  binding: binds

## Fibrinogen betaB (from UniProt P02675 31-491)
  binding: binds

## NPM1 protein (from UniProt P06748 1-294)
  binding: binds

## HSP90AB1 protein (from UniProt P08238 1-724)
  binding: binds

## Myosin-9 (from UniProt P35579 1-1960)
  binding: binds

## Fibrinopeptide B (from UniProt P02675 31-44)
  binding: binds

## Alpha actinin 2 (from UniProt P35609 1-894)
  binding: binds

## Ras GTPase-activating-like protein IQGAP1 (from UniProt P46940 1-1657)
  binding: binds

## Alpha-actinin 4 (from UniProt O43707 1-911)
  binding: binds

## Isoleucine-tRNA synthetase (enzyme)
  binding: binds

## Glutamyl-prolyl-tRNA synthetase (from UniProt P07814 1-1512) (enzyme)
  binding: binds

## BiP protein (from UniProt P11021 19-654)
  binding: binds

## POTE ankyrin domain family member F (from UniProt A5A3E0 1-1075)
  binding: binds

## Keratin 10 (from UniProt P13645 1-584)
  binding: binds

## Proliferation-inducing protein 44
  binding: binds

## Valosin-containing protein (from UniProt P55072 1-806) (enzyme)
  binding: binds

## Heat shock 70kDa protein 9 (mortalin) (from UniProt P38646 47-679)
  binding: binds

## Glyceraldehyde-3-phosphate dehydrogenase (from UniProt P04406 1-335) (enzyme)
  binding: binds

## Alpha actinin 3 (from UniProt Q08043 1-901)
  binding: binds

## Clathrin heavy chain 1 (from UniProt Q00610 1-1675)
  binding: binds

B1: Glutaminyl-tRNA synthetase (enzyme, UniProt P47897 1-775)
chain: MAALDSLSLFTSLGLSEQKARETLKNSALSAQLREAATQAQQTLGSTIDKATGILLYGLASRLRDTRRLSFLVSYIASKKIHTEPQLSAALEYVRSHPLDPIDTVDFERECGVGVIVTPEQIEEAVEAAINRHRPQLLVERYHFNMGLLMGEARAVLKWADGKMIKNEVDMQVLHLLGPKLEADLEKKFKVAKARLEETDRRTAKDVVENGETADQTLSLMEQLRGEALKFHKPGENYKTPGYVVTPHTMNLLKQHLEITGGQVRTRFPPEPNGILHIGHAKAINFNFGYAKANNGICFLRFDDTNPEKEEAKFFTAICDMVAWLGYTPYKVTYASDYFDQLYAWAVELIRRGLAYVCHQRGEELKGHNTLPSPWRDRPMEESLLLFEAMRKGKFSEGEATLRMKLVMEDGKMDPVAYRVKYTPHHRTGDKWCIYPTYDYTHCLCDSIEHITHSLCTKEFQARRSSYFWLCNALDVYCPVQWEYGRLNLHYAVVSKRKILQLVATGAVRDWDDPRLFTLTALRRRGFPPEAINNFCARVGVTVAQTTMEPHLLEACVRDVLNDTAPRAMAVLESLRVIITNFPAAKSLDIQVPNFPADETKGFHQVPFAPIVFIERTDFKEEPEPGFKRLAWGQPVGLRHTGYVIELQHVVKGPSGCVESLEVTCRRADAGEKPKAFIHWVSQPLMCEVRLYERLFQHKNPEDPTEVPGGFLSDLNLASLHVVDAALVDCSVALAKPFDKFQFERLGYFSVDPDSHQGKLVFNRTVTLKEDPGKV
  binding: binds

B2: Ribosome-binding protein 1 (protein, UniProt Q9P2E9 1-1410)
chain: MDIYDTQTLGVVVFGGFMVVSAIGIFLVSTFSMKETSYEEALANQRKEMAKTHHQKVEKKKKEKTVEKKGKTKKKEEKPNGKIPDHDPAPNVTVLLREPVRAPAVAVAPTPVQPPIIVAPVATVPAMPQEKLASSPKDKKKKEKKVAKVEPAVSSVVNSIQVLTSKAAILETAPKEVPMVVVPPVGAKGNTPATGTTQGKKAEGTQNQSKKAEGAPNQGRKAEGTPNQGKKTEGTPNQGKKAEGTPNQGKKAEGTPNQGKKAEGAQNQGKKVDTTPNQGKKVEGAPTQGRKAEGAQNQAKKVEGAQNQGKKAEGAQNQGKKGEGAQNQGKKAEGAQNQGKKAEGAQNQGKKAEGAQNQGKKAEGAQNQGKKAEGAQNQGKKAEGAQNQGKKVEGAQNQGKKAEGAQNQGKKAEGAQNQGKKAEGAQNQGKKAEGAQNQGKKAEGAQNQGKKAEGAQNQGKKAEGAQNQGKKVEGAQNQGKKAEGAQNQGKKAEGAQNQGKKAEGAQNQGQKGEGAQNQGKKTEGAQGKKAERSPNQGKKGEGAPIQGKKADSVANQGTKVEGITNQGKKAEGSPSEGKKAEGSPNQGKKADAAANQGKKTESASVQGRNTDVAQSPEAPKQEAPAKKKSGSKKKGEPGPPDADGPLYLPYKTLVSTVGSMVFNEGEAQRLIEILSEKAGIIQDTWHKATQKGDPVAILKRQLEEKEKLLATEQEDAAVAKSKLRELNKEMAAEKAKAAAGEAKVKKQLVAREQEITAVQARMQASYREHVKEVQQLQGKIRTLQEQLENGPNTQLARLQQENSILRDALNQATSQVESKQNAELAKLRQELSKVSKELVEKSEAVRQDEQQRKALEAKAAAFEKQVLQLQASHRESEEALQKRLDEVSRELCHTQSSHASLRADAEKAQEQQQQMAELHSKLQSSEAEVRSKCEELSGLHGQLQEARAENSQLTERIRSIEALLEAGQARDAQDVQASQAEADQQQTRLKELESQVSGLEKEAIELREAVEQQKVKNNDLREKNWKAMEALATAEQACKEKLLSLTQAKEESEKQLCLIEAQTMEALLALLPELSVLAQQNYTEWLQDLKEKGPTLLKHPPAPAEPSSDLASKLREAEETQSTLQAECDQYRSILAETEGMLRDLQKSVEEEEQVWRAKVGAAEEELQKSRVTVKHLEEIVEKLKGELESSDQVREHTSHLEAELEKHMAAASAECQNYAKEVAGLRQLLLESQSQLDAAKSEAQKQSDELALVRQQLSEMKSHVEDGDIAGAPASSPEAPPAEQDPVQLKTQLEWTEAILEDEQTQRQKLTAEFEEAQTSACRLQEELEKLRTAGPLESSETEEASQLKERLEKEKKLTSDLGRAATRLQELLKTTQEQLAREKDTVKKLQEQLEKAEDGSSSKEGTSV
  binding: binds

These are yes or no findings as the source states them, for the method shown. Binding seen in cells or lysates may run through a third protein. A yes stands for co-enrichment or nearness to the bait. Other partners may have been found.
